Paper PMC12046912
Results are given in words; binding and its absence hold for the method and conditions named. Binding seen in cells or lysates may run through a third protein. Some entries that bind do so weakly or less than the wild type.

Chains of the proteins cited; added tags and fusions are not shown. Residues count along the entry.
UniProt Q6YHK3, residues 22-1420: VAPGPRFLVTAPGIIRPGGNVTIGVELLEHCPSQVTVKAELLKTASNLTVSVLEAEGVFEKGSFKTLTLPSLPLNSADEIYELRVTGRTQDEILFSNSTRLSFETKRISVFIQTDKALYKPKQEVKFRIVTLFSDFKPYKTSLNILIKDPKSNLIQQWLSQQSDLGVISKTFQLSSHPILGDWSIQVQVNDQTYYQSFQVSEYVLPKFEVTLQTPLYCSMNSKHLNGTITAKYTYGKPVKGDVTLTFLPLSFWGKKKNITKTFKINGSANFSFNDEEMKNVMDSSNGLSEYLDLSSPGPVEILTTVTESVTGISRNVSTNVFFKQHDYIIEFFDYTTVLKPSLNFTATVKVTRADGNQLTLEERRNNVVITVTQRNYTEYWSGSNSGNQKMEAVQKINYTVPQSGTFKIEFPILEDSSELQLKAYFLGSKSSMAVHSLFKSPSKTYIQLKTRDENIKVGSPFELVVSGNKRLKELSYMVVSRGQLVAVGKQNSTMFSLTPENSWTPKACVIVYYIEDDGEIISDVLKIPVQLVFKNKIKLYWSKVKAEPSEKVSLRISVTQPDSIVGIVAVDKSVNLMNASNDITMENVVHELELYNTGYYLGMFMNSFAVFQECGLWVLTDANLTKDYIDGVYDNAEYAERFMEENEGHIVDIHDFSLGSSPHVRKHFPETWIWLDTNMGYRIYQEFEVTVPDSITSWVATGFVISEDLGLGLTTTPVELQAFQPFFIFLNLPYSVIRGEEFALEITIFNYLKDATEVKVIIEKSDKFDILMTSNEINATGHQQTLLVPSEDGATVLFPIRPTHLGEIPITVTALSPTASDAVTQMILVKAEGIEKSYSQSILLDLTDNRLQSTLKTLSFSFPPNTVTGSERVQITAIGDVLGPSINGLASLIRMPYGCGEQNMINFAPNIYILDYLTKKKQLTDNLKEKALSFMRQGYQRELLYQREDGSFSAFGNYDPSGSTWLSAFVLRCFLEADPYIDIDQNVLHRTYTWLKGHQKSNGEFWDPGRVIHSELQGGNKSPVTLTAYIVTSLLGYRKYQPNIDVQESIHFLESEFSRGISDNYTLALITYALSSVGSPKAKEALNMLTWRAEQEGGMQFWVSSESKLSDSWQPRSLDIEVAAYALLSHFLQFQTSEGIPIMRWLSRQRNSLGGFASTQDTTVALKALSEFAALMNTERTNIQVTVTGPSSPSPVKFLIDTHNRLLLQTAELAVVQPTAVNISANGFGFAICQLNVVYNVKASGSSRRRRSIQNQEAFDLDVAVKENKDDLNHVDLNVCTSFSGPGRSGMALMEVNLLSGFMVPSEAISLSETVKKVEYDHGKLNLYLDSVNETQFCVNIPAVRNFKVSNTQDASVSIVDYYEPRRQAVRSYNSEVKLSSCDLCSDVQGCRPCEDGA
UniProt P40189, residues 23-918: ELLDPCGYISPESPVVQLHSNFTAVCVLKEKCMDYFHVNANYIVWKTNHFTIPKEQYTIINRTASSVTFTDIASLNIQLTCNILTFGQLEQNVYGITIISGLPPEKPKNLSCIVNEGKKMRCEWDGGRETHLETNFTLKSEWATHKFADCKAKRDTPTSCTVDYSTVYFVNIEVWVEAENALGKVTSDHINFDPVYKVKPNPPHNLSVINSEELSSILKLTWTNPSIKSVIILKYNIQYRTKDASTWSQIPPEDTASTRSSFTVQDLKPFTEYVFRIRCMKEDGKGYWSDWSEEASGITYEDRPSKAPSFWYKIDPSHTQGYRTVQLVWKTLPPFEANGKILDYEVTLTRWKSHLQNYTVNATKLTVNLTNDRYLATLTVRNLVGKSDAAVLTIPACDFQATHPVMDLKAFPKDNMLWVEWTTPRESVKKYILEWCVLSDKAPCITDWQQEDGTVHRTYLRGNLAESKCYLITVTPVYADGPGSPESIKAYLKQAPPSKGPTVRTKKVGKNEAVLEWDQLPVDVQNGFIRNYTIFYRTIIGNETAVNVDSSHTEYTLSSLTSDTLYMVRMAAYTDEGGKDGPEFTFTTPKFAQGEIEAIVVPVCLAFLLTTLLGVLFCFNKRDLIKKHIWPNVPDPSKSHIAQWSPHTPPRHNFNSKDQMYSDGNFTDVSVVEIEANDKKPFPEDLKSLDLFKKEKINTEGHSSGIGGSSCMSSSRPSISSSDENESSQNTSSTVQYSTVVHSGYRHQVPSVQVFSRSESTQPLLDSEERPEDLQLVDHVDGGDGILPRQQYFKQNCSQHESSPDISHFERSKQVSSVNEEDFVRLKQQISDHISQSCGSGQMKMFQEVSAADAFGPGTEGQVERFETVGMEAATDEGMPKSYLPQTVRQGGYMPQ
UniProt P40763: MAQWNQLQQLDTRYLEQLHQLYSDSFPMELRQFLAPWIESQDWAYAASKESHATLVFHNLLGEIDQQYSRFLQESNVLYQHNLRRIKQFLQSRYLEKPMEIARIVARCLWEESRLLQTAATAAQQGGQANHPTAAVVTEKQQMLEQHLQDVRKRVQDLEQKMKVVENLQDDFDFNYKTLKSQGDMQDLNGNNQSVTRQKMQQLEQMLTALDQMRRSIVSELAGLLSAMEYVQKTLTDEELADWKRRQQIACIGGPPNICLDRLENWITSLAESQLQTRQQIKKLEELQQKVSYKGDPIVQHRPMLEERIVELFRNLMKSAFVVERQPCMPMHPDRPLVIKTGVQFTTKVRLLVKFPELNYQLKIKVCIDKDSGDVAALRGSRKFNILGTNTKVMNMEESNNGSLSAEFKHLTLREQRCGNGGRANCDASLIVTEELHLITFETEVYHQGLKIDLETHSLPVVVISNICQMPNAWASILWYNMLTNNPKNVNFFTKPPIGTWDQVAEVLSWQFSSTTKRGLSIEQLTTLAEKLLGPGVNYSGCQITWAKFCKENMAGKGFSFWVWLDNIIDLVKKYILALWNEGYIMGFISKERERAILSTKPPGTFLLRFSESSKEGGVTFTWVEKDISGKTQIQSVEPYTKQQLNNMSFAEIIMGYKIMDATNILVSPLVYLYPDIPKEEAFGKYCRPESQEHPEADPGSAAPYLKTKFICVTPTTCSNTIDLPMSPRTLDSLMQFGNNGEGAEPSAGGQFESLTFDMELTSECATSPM

Assays:
[1] = target: CD109 (Cluster of Differentiation 109) (human (endogenous in A431 and SCC9)) (UniProt Q6YHK3); assay: co-IP; as a1, after siRNA knock-down of IL6Rα (Figure S11)
[2] = target: T1, Nuclear factor erythroid 2-related factor 2 (human (endogenous in SCC9)) (UniProt Q16236); assay: co-IP; endogenous proteins in total cell lysates (Pierce IP Lysis Buffer); 500 μg protein with 2.5 μg/ml antibody (anti-CD109, anti-IL6Rα, anti-STAT3 or anti-NRF2) overnight at 4 °C, Protein G magnetic beads, Western blot; control IgG; cells without or with 20 ng/ml IL-6 (25 min by the methods; overnight for STAT3-NRF2 by the legend of Fig. 7A)
T1 sequence: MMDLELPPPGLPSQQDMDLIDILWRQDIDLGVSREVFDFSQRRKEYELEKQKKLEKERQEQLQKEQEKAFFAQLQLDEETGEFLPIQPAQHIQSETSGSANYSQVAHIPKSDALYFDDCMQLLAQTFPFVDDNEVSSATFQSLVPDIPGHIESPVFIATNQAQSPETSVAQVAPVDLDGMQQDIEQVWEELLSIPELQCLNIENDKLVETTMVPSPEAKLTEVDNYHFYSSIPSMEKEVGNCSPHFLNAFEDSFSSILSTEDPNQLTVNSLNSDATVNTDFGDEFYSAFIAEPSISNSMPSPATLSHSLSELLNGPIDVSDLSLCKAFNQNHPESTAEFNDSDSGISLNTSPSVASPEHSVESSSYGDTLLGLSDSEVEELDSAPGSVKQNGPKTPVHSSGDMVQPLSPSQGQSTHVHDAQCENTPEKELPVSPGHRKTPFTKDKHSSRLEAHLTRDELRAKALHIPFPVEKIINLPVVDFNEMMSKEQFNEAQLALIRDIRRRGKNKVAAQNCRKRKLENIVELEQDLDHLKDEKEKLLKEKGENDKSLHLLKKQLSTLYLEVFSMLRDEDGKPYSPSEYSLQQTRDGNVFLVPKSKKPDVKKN

| binding [2] | Substance | binding [1] |
| --- | --- | --- |
| – | Glycoprotein 130 (from UniProt P40189 23-918) (receptor) | no binding (condition: after siRNA knock-down of IL6Rα) |
| binds | Signal Transducer and Activator of Transcription 3 (from UniProt P40763 1-770) | – |
